Laboratory results reported in the supplement of paper PMC12067093, “Discovery and optimisation of a covalent ligand for TRIM25 and its application to targeted protein ubiquitination” (Chemical Science, 2025).
The list shows a part of the results.

Chains of the proteins cited; added tags and fusions are not shown. Lines headed by an entry give the natural chain unless they say otherwise; changes in a name come on top.
UniProt Q7Z333: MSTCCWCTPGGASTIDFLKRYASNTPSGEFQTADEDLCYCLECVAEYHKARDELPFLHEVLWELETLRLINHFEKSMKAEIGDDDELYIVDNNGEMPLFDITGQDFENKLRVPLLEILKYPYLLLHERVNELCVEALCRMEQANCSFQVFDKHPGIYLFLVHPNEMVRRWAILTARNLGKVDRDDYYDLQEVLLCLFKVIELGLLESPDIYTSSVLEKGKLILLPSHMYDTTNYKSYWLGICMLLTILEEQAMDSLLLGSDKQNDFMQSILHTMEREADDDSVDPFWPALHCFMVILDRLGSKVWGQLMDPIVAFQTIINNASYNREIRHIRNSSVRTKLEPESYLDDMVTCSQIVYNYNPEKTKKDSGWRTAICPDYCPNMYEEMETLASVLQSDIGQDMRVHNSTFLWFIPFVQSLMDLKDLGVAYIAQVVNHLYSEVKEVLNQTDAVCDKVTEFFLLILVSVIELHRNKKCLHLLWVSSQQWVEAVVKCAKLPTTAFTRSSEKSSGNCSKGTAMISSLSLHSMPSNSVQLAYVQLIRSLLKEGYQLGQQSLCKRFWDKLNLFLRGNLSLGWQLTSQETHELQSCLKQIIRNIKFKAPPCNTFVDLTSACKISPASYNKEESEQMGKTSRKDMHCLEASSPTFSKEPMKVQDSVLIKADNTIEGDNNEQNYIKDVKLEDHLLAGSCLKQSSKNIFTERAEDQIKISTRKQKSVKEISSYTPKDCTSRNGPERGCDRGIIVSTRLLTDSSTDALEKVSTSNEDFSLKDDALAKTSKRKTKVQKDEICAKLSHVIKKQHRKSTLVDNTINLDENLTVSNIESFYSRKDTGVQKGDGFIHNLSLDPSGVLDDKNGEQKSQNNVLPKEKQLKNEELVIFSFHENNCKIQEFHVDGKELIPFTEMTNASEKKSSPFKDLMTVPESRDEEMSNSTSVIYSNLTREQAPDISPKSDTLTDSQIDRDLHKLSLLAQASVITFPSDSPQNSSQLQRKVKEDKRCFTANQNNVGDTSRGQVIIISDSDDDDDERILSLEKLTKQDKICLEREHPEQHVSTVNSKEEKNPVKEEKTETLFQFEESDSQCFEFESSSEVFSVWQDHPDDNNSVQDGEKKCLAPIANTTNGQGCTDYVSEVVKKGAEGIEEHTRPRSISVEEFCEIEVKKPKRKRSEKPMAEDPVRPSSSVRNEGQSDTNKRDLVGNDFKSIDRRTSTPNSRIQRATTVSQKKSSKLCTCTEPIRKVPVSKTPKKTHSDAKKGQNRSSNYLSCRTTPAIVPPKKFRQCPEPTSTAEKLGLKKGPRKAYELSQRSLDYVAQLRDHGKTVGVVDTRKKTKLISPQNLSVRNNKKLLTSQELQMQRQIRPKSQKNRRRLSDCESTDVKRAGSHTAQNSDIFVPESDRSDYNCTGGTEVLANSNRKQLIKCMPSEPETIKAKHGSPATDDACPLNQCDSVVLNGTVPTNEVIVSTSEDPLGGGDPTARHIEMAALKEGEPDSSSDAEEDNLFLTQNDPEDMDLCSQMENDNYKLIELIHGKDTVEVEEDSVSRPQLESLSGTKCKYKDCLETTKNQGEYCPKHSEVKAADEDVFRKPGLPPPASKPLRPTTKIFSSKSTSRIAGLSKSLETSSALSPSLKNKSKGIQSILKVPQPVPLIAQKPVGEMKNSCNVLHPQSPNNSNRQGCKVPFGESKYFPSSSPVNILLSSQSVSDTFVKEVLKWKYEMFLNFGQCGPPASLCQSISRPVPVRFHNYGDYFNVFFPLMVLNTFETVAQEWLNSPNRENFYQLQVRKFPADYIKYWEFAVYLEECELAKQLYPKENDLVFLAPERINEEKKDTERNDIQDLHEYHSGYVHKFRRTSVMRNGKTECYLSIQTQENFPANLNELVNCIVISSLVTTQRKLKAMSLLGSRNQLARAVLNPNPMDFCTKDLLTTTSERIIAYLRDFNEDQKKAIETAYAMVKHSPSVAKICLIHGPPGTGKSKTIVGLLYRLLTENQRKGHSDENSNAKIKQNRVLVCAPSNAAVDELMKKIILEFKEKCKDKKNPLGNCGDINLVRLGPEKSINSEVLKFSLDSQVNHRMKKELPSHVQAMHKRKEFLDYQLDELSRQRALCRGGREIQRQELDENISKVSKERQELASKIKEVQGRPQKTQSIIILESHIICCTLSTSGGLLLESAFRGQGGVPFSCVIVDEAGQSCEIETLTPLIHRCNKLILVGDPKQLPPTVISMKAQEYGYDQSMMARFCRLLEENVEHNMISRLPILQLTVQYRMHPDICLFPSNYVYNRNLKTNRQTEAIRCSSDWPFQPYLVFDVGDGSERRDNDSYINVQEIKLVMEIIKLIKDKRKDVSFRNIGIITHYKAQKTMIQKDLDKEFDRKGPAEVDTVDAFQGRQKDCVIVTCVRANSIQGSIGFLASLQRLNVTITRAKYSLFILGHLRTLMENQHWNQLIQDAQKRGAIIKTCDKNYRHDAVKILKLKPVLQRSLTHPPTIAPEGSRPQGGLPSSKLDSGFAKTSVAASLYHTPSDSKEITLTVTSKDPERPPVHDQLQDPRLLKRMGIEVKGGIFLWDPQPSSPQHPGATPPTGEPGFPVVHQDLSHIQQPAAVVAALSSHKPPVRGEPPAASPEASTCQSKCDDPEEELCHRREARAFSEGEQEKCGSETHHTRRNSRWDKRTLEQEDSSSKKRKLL
UniProt Q96FS4: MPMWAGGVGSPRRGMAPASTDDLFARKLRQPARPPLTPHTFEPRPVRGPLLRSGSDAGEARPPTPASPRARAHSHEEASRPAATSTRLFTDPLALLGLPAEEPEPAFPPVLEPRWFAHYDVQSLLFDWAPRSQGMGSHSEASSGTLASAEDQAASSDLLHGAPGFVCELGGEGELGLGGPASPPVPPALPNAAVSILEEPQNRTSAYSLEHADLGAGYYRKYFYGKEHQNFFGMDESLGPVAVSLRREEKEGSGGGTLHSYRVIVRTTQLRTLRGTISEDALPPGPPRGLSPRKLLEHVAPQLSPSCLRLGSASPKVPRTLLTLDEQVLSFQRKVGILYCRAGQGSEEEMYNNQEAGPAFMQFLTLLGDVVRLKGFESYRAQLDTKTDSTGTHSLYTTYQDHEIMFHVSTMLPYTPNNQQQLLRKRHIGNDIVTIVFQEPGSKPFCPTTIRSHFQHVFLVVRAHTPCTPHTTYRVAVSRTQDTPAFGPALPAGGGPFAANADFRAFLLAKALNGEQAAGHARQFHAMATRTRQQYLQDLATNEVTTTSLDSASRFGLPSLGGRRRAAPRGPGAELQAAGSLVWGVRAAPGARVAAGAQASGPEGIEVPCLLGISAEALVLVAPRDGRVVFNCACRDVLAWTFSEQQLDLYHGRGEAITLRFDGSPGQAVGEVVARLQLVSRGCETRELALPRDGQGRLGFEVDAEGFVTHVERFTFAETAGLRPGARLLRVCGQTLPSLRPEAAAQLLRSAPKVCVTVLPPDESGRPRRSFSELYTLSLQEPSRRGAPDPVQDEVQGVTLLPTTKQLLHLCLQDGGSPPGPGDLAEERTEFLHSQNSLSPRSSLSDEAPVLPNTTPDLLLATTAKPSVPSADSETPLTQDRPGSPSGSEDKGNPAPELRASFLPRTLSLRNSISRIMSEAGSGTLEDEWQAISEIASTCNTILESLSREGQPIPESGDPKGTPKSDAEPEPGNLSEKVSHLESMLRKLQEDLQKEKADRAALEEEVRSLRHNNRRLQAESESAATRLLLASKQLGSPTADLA
UniProt P78324, whole entry, looked up: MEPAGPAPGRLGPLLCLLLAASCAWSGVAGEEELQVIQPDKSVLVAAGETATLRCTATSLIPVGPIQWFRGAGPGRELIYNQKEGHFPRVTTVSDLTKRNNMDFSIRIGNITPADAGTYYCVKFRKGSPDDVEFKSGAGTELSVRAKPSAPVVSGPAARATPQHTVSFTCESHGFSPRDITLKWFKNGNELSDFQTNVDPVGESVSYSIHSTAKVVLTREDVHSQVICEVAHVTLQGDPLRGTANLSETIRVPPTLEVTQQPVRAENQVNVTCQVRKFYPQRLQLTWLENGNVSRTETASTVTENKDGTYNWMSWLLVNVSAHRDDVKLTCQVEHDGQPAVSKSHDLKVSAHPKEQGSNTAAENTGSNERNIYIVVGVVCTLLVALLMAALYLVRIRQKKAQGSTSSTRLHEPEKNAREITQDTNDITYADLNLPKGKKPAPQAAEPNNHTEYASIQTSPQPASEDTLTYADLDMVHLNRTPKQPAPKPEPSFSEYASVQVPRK
UniProt Q99961: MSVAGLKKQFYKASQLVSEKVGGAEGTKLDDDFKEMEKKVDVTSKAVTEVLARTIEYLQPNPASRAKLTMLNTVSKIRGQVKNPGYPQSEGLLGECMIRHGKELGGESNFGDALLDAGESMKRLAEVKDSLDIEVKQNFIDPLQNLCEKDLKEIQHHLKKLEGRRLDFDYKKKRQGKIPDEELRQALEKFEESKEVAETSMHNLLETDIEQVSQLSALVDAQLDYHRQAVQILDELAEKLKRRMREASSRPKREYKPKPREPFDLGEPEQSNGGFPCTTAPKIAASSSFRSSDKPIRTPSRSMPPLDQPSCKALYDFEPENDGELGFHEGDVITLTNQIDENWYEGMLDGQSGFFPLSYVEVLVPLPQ
UniProt Q9UPS6, whole entry, looked up: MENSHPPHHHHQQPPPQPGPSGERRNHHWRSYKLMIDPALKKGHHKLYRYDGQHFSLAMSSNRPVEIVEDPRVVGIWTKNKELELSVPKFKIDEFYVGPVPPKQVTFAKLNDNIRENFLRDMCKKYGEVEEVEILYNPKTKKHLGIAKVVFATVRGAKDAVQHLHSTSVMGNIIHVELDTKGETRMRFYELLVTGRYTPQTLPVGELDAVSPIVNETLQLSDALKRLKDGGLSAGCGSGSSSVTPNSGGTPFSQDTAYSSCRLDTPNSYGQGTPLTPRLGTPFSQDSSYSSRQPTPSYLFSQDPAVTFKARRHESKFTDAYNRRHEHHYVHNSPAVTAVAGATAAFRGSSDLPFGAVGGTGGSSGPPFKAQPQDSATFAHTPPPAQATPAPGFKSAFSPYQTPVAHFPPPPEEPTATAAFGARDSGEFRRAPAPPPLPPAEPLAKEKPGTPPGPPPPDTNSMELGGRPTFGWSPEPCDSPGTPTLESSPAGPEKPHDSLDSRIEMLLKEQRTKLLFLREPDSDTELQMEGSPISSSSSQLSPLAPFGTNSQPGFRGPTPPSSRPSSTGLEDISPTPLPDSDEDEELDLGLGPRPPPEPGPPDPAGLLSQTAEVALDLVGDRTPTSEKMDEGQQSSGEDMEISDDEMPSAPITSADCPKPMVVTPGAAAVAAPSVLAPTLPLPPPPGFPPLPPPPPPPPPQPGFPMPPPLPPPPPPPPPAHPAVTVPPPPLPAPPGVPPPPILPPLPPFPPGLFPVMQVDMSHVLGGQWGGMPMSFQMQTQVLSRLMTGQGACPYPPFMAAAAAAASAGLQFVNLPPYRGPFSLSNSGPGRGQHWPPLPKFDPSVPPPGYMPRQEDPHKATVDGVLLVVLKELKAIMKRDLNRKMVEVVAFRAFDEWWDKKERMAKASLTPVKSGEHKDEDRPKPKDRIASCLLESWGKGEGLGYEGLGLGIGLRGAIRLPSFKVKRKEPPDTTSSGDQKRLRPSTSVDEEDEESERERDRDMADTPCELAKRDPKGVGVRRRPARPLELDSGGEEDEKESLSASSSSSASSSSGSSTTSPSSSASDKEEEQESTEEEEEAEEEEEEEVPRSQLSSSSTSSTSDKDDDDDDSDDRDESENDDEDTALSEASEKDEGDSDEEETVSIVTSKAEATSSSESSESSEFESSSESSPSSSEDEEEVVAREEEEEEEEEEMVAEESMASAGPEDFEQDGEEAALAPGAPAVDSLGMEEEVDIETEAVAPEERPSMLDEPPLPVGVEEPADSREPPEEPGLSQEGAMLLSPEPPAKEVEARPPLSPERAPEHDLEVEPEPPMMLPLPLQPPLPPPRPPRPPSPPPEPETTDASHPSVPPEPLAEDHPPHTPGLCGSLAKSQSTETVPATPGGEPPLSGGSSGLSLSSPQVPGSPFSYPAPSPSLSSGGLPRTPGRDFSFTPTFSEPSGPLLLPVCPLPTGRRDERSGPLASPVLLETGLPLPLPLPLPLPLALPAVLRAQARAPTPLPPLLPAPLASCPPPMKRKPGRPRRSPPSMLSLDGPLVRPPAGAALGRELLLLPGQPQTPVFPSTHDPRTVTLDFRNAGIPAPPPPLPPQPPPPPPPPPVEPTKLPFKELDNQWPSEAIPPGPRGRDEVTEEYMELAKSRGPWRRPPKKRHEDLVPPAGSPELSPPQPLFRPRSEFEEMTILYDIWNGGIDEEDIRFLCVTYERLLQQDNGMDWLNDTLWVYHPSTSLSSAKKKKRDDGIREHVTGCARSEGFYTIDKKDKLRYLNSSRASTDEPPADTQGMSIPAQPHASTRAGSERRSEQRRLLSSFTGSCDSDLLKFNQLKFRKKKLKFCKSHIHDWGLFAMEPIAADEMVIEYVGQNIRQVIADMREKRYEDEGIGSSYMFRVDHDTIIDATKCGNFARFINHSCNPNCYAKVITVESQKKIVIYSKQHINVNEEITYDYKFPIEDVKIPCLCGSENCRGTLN

Compound: Cc1cc(ccc1-c1ccccc1)C(=O)N1CCCN(CC1)C(=O)CCl [compound 10]
Assay: probe-labelled cysteine peptide fold change vs DMSO (competition) (log2 fold change); higher = less target engagement (more negative = stronger competition)
Details: THP-1, incubation time: 4 h
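Note: competitive profiling in live THP-1 cells: cysteine peptides tagged with an iodoacetamide desthiobiotin (IA-DTB) probe, intensity after compound treatment relative to DMSO-treated cells.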

| Target | probe-labelled cysteine peptide fold change (10 µM) | probe-labelled cysteine peptide fold change (50 µM) |
| --- | --- | --- |
| SLC27A4_Q6P1M0_560_AGMAAVASPTGNCDLER (UniProt Q6P1M0) | -0.03 | -0.0763 |
| SKA3_Q8IX90_215_MDDFECVTPK (UniProt Q8IX90) | -0.222 | 0.00308 |
| SETX_Q7Z333_1565_NQGEYCPK (UniProt Q7Z333) | -0.228 | -0.146 |
| SLC25A1_P53007_262_NTWDCGLQILK (UniProt P53007) | 0.0653 | -0.00694 |
| SHPRH_Q149N8_1110_CNTEVAEAQQALYPVQQTIHELQR (UniProt Q149N8) | 0.0924 | 0.293 |
| SGK3_Q96BR1_13_ESCPSVSIPSSDEHR (UniProt Q96BR1) | -0.212 | -0.17 |
| SGO2_Q562F6_1041_HITSEADSDPGNPVELCK (UniProt Q562F6) | -0.0847 | 0.0781 |
| SETD2_Q9BYW2_2532_NPEDLECNENVK (UniProt Q9BYW2) | 0.506 | 0.0337 |
| SEPT6_Q14141_14_QVGEGCR (UniProt Q14141) | -0.187 | -0.123 |
| SIPA1_Q96FS4_467_AHTPCTPHTTYR (UniProt Q96FS4) | 0.0796 | 0.0157 |
| SIL1_Q9H173_379_QVHLLPGLWEQGWCEITAHLLALPEHDAR (UniProt Q9H173) | -0.0637 | 0.625 |
| SERBP1_Q8NC51_11_PGHLQEGFGCVVTNRFDQLFDDESDPFEVLK (UniProt Q8NC51) | 0.0291 | -0.513 |
| SHMT1_P34896_335_VYQHQVVANCR (UniProt P34896) | 0.00275 | 0.295 |
| SLC25A12_O75746_563_AGQTTYSGVIDCFR (UniProt O75746) | 0.067 | 0.0966 |
| SLC25A12_O75746_130_EIFGQTIIHHHIPFNWDCEFIR (UniProt O75746) | 0.287 | 0.374 |
| SETX_Q7Z333_1416_CMPSEPETIK (UniProt Q7Z333) | -0.616 | -0.311 |
| SGO1_Q5FBB7_478_CTASVNYK (UniProt Q5FBB7) | 0.264 | 0.00171 |
| SIRPA_P78324_228_EDVHSQVICEVAHVTLQGDPLR (UniProt P78324) | -0.225 | -0.114 |

| Target | probe-labelled cysteine peptide fold change (10 µM) | probe-labelled cysteine peptide fold change (50 µM) |
| --- | --- | --- |
| SIRPA_P78324_170_ATPQHTVSFTCESHGFSPR (UniProt P78324) | 0.131 | 0.388 |
| SERPINB6_P35237_350_FCADHPFLFFIQHSK (UniProt P35237) | -0.116 | -0.0597 |
| SKA3_Q8IX90_147_TDVKDDLSDPPVASSCISEK (UniProt Q8IX90) | -0.261 | -0.241 |
| SF3B1_O75533_965_TCQEEK (UniProt O75533) | 0.131 | 0.267 |
| SF1_Q15637_282+292_CGGAGHIASDCK (UniProt Q15637) | 0.0743 | -0.0388 |
| SH2D4A_Q9H788_94_EVWVWVMGEHHLDKPYDVLCNEIIAER (UniProt Q9H788) | -0.0245 | -0.0157 |
| SIRT2_Q8IXJ6_221_CEDCQSLVKPDIVFFGESLPAR (UniProt Q8IXJ6) | 0.04 | 0.0413 |
| SH3GL1_Q99961_277_EPFDLGEPEQSNGGFPCTTAPK (UniProt Q99961) | -0.27 | -0.207 |
| SGF29_Q96ES7_74_ADAEAECNILR (UniProt Q96ES7) | -0.0208 | 0.12 |
| SETD1B_Q9UPS6_1912_FINHSCNPNCYAK (UniProt Q9UPS6) | -0.216 | -0.0903 |
| SIK3_Q9Y2K2_655_QLQQECEQLQK (UniProt Q9Y2K2) | 0.117 | -0.233 |
| SF1_Q15637_279_SITNTTVCTK (UniProt Q15637) | 0.19 | 0.118 |
| SHTN1_A0MZ66_442_GCESAVDELK (UniProt A0MZ66) | -0.093 | -0.147 |
| SHC1_P29353_574_FESVSHLISYHMDNHLPIISAGSELCLQQPVER (UniProt P29353) | 0.226 | 0.476 |
| SETD1B_Q9UPS6_1908_FINHSCNPNCYAK (UniProt Q9UPS6) | 0.136 | 0.0984 |
| SLAIN1_Q8ND83_313_KGTCSDQEYDQYSLEDEEEFDHLPPPQPR (UniProt Q8ND83) | -0.0555 | -0.229 |
| SIPA1_Q96FS4_811_QLLHLCLQDGGSPPGPGDLAEER (UniProt Q96FS4) | 0.15 | -0.172 |
